Test results: paper PMC4336944
Where two headings read alike, the source gives them in different places. These are yes or no findings as the source states them, for the method shown. Binding seen in cells or lysates may run through a third protein. Here binding means that the protein was enriched with, or labelled near, the bait; the list need not be complete. For some of these results: A no says only that the protein was not detected with the bait. For some of these results: Tags and fused reporters may be left off the sequences shown.

Sequences of proteins named here, by UniProt entry; tags and fusion partners are left off.
UniProt P05412: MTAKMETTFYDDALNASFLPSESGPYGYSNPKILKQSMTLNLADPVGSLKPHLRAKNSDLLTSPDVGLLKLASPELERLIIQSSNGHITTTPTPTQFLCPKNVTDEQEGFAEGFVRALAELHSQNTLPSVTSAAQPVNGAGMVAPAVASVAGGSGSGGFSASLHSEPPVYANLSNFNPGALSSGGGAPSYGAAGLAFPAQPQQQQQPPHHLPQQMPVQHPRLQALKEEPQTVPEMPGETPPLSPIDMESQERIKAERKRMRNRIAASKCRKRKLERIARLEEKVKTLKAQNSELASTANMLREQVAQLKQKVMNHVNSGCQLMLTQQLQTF
UniProt Q12923: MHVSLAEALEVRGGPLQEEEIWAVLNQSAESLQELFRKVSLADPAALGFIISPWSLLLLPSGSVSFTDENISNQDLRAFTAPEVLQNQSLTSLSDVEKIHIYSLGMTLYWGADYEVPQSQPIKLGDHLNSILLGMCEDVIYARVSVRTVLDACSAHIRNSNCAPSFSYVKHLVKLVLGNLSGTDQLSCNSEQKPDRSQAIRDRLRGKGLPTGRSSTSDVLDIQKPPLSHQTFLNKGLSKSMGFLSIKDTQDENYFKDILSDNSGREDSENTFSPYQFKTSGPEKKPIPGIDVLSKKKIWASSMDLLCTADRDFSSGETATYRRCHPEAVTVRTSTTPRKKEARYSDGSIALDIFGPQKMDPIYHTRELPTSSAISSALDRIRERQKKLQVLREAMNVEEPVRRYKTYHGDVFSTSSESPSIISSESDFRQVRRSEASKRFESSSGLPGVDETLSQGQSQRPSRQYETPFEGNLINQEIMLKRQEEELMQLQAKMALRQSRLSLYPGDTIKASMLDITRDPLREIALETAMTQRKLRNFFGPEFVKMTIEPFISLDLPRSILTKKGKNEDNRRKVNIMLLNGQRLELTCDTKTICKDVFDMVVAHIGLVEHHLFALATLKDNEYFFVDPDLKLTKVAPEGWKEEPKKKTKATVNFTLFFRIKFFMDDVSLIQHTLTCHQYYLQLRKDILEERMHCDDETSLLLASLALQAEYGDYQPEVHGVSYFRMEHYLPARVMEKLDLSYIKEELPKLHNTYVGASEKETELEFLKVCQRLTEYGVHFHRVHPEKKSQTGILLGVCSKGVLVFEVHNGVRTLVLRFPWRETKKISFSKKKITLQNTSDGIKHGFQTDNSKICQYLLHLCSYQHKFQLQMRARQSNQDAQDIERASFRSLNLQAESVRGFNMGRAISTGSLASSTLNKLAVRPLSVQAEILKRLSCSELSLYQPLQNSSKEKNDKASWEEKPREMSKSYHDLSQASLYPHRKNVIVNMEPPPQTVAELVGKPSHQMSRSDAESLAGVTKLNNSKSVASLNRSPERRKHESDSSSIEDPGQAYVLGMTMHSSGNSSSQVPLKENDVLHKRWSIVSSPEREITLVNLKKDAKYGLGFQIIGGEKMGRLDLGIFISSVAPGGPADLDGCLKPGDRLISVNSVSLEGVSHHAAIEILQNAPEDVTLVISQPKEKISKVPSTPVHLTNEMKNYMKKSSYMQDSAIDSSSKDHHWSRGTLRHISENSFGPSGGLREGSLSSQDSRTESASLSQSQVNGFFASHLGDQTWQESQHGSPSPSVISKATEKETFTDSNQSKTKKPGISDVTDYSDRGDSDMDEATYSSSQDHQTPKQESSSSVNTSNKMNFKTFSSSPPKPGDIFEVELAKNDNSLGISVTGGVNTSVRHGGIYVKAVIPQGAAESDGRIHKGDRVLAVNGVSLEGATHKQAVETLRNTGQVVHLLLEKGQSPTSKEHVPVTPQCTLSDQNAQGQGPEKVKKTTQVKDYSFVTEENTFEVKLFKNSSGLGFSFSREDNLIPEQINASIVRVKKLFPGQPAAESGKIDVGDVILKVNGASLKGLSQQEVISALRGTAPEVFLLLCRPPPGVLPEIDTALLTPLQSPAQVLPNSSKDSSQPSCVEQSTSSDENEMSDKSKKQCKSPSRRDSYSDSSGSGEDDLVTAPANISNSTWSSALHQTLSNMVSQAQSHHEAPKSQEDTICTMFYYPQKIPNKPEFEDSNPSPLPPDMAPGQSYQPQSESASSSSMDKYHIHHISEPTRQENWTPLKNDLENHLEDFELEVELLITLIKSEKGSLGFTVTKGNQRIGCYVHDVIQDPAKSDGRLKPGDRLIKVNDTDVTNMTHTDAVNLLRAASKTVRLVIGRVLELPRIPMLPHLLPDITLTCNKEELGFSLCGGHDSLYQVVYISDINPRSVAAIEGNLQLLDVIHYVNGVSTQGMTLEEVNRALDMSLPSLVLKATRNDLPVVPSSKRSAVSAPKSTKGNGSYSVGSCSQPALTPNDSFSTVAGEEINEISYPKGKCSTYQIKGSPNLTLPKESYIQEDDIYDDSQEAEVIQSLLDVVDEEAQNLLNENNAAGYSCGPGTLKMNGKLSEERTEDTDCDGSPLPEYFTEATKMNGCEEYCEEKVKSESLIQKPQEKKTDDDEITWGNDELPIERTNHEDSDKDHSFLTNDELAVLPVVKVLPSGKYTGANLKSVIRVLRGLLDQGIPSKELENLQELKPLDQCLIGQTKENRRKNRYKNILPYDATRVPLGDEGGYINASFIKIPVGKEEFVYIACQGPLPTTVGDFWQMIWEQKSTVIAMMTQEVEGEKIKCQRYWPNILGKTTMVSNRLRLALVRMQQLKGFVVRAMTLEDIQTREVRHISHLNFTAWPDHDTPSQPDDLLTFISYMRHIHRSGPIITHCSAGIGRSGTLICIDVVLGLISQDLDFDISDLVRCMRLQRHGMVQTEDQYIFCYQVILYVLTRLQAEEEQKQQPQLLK
UniProt Q07157: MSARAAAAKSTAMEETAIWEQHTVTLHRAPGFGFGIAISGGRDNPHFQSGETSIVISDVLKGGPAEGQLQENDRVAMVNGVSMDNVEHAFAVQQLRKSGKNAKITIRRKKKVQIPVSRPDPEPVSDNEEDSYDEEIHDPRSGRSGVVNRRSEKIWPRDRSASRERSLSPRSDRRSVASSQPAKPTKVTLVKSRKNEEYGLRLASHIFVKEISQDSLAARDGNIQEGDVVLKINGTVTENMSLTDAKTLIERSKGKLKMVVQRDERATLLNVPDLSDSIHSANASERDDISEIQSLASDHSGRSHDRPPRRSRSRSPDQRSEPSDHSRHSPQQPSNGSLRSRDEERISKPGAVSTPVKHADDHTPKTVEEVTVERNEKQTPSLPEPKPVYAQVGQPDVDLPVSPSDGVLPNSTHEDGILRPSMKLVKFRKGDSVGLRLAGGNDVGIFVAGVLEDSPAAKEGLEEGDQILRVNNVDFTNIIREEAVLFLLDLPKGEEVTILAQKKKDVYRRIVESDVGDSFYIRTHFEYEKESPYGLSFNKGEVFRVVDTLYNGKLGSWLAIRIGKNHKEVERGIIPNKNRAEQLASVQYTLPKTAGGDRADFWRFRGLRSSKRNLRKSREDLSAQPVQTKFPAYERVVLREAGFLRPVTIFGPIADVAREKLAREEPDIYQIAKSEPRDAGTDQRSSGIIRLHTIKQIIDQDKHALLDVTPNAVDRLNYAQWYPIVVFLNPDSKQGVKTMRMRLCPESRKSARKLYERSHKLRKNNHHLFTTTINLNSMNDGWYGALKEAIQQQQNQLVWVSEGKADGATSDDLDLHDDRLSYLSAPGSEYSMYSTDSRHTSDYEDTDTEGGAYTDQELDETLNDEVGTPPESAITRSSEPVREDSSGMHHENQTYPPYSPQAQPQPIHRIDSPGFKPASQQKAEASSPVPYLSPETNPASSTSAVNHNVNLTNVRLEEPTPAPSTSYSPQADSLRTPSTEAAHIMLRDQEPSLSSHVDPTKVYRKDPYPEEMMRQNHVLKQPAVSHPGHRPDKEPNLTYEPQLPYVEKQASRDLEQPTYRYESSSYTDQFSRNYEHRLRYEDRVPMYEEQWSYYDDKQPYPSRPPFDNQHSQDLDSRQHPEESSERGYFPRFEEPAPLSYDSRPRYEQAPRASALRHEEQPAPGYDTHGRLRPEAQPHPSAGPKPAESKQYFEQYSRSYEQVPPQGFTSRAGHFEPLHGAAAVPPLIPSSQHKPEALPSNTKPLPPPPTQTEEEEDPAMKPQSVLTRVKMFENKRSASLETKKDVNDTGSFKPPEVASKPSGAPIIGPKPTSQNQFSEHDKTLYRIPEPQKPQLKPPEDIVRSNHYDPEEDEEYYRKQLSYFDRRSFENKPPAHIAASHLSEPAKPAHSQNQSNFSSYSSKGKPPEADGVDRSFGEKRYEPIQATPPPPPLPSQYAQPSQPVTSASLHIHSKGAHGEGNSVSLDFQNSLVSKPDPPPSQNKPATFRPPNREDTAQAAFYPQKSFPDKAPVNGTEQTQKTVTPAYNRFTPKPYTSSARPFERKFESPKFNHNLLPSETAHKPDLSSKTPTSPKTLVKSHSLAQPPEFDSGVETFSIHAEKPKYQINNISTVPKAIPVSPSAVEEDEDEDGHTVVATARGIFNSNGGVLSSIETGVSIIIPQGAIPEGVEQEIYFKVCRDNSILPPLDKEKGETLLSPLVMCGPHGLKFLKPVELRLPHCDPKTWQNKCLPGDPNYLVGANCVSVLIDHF
UniProt Q9UDY2: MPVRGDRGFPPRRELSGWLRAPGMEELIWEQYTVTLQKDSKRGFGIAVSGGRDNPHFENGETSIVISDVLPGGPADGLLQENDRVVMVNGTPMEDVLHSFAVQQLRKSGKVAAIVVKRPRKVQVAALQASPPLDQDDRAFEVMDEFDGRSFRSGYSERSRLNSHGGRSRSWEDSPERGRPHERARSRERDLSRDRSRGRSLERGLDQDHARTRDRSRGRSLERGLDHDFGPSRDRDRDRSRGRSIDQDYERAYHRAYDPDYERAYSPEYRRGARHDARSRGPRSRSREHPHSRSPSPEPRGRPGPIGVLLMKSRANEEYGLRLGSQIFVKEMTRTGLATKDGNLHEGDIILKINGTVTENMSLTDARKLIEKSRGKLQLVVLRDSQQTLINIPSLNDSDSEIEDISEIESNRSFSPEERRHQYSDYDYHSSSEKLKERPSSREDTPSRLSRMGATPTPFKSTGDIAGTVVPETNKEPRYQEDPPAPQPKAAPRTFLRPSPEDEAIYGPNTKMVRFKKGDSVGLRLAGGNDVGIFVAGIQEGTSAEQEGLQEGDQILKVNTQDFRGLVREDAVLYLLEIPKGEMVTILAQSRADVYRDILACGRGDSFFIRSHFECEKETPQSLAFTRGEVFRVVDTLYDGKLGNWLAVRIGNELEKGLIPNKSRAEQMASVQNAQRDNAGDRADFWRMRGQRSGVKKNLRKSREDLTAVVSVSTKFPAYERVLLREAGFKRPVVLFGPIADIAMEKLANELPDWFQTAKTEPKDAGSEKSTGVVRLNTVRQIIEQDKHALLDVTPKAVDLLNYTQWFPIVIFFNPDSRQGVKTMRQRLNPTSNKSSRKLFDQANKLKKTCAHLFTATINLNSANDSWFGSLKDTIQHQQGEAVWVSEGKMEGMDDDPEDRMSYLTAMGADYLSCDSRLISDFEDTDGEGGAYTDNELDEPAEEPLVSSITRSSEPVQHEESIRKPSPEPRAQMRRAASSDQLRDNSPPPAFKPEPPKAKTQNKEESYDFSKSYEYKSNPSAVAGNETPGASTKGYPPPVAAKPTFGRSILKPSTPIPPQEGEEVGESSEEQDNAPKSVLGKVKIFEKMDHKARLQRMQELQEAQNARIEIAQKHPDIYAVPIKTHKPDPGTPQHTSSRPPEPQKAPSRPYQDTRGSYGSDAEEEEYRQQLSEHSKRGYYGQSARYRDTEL

What was measured:
[1] = target: Halo-JUN lacking the C-terminal valine cloning scar (human) (UniProt P05412); assay: affinity purification with mass spectrometry; Halo-tagged bait transiently transfected in HEK293T; whole cell extract on Magne HaloTag magnetic beads 1 h at 4°, washed in Tris pH 7.4, 137 mM NaCl, 0.05% Nonidet P40, eluted with AcTEV protease; MudPIT; control: Halo tag alone
[2] = target: T1, Halo-TNIP2 stably expressed under the control of the CMVd2 promoter (human) (UniProt Q8NFZ5); assay: affinity purification with mass spectrometry; Halo-TNIP2 stably expressed in Flp-In-293 cells under the CMVd2 promoter at close to endogenous levels; Magne HaloTag beads, TEV elution, MudPIT; control: HEK293T cells
T1 sequence: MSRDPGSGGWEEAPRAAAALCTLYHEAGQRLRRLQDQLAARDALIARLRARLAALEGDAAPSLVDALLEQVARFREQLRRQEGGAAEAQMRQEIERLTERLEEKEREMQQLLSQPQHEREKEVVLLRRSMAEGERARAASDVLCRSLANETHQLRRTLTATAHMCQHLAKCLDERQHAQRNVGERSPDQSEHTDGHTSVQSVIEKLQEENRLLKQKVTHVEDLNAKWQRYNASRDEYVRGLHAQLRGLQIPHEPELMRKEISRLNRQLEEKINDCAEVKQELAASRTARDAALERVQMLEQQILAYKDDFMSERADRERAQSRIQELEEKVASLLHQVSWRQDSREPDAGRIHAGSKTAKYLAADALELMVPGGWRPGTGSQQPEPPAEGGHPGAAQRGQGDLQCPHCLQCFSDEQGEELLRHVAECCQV

[3] = target: T2, Flexi-cloned Halo-TNIP2 (with the C-terminal valine cloning scar), transiently expressed from the CMV promoter (human) (UniProt Q8NFZ5); assay: affinity purification with mass spectrometry; Halo-tagged bait transiently transfected in HEK293T; whole cell extract on Magne HaloTag magnetic beads 1 h at 4°, washed in Tris pH 7.4, 137 mM NaCl, 0.05% Nonidet P40, eluted with AcTEV protease; MudPIT; control: Halo tag alone
T2 sequence: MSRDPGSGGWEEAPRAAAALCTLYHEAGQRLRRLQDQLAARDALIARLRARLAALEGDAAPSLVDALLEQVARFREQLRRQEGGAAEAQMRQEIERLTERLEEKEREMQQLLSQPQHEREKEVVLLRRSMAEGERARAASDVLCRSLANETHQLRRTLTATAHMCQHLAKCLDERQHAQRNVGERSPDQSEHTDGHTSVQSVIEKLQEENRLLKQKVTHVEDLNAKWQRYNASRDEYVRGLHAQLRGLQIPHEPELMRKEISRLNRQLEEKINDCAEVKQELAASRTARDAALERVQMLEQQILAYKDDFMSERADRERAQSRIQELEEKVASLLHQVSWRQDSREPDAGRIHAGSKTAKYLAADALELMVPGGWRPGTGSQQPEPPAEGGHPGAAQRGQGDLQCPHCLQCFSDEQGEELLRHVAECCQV

[4] = target: T3, Halo-TNIP2 253-429 (with the cloning scar valine) (human) (UniProt Q8NFZ5); assay: as above
T3 sequence: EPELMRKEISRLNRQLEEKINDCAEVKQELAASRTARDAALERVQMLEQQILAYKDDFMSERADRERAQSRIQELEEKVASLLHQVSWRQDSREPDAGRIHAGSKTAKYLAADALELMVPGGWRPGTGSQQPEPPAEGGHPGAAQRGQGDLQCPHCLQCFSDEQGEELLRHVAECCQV

[5] = target: T4, Halo-TNIP2 without the C-terminal valine (human) (UniProt Q8NFZ5); assay: as above
T4 sequence: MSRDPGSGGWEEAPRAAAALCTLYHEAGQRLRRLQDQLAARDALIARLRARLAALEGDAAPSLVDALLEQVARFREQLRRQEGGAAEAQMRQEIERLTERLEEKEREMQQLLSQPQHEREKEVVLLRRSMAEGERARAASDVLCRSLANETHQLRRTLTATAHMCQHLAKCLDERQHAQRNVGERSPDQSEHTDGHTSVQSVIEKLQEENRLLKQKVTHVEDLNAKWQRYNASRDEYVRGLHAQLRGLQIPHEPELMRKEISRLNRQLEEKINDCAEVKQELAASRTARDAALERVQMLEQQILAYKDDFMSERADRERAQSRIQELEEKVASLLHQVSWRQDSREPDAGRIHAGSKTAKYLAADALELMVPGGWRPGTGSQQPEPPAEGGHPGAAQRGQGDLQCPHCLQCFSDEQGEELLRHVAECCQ

[6] = target: T5, TNIP2-Halo (full length TNIP2 with the Halo tag at the C-terminus) (human) (UniProt Q8NFZ5); assay: as above
T5 sequence: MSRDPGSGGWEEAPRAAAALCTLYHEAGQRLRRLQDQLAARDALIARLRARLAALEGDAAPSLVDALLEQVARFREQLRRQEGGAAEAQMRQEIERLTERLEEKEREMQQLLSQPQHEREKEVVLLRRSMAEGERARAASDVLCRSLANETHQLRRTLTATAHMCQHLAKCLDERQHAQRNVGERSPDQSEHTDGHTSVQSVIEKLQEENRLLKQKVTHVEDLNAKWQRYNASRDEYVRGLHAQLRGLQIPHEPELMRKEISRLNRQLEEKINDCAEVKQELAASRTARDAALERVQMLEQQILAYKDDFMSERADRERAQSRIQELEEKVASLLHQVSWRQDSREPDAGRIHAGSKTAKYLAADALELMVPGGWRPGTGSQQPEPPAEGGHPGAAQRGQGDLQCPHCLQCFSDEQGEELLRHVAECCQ

Halo-PTPN13 = Halo-PTPN13 (UniProt Q12923); assay: as above
[7] = target: T6, Halo-TNIP2 253-429 no valine (human) (UniProt Q8NFZ5); assay: as above
T6 sequence: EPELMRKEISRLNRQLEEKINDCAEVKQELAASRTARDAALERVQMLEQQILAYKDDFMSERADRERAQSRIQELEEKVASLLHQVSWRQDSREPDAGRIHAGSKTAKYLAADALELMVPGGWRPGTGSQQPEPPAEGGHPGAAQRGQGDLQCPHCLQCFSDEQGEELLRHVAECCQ

[8] = target: Halo-JUN lacking the C-terminal valine cloning scar (human) (UniProt P05412); assay: as above; remark: listed apart in the source

tight junction protein TJP1, endogenous (two isoforms) (from UniProt Q07157 1-1748)
binding [1]: no binding

TJP2, endogenous (from UniProt Q9UDY2 1-1190)
binding [1]: no binding

PTPN13, endogenous (from UniProt Q12923 1-2485)
binding [2]: binds | binding [3]: binds | binding [4]: binds | binding [5]: no binding | binding [6]: no binding

NFKB1, endogenous (from UniProt P19838 1-968)
binding [2]: binds | binding [3]: binds

B1: STXBP4, endogenous (protein, UniProt Q6ZWJ1 1-553)
chain: MNKNTSTVVSPSLLEKDPAFQMITIAKETGLGLKVLGGINRNEGPLVYIQEIIPGGDCYKDGRLKPGDQLVSVNKESMIGVSFEEAKSIITGAKLRLESAWEIAFIRQKSDNIQPENLSCTSLIEASGEYGPQASTLSLFSSPPEILIPKTSSTPKTNNDILSSCEIKTGYNKTVQIPITSENSTVGLSNTDVASAWTENYGLQEKISLNPSVRFKAEKLEMALNYLGIQPTKEQHQALRQQVQADSKGTVSFGDFVQVARNLFCLQLDEVNVGAHEISNILDSQLLPCDSSEADEMERLKCERDDALKEVNTLKEKLLESDKQRKQLTEELQNVKQEAKAVVEETRALRSRIHLAEAAQRQAHGMEMDYEEVIRLLEAKITELKAQLADYSDQNKESVQDLKKRIMVLDCQLRKSEMARKTFEASTEKLLHFVEAIQEVFSDNSTPLSNLSERRAVLASQTSLTPLGRNGRSIPATLALESKELVKSVRALLDMDCLPYGWEEAYTADGIKYFINHVTQTTSWIHPVMSVLNLSRSEENEEDCSRELPNQKS
binding (Halo-PTPN13): binds | binding [7]: no binding

B2: MPP7, endogenous (protein, UniProt Q5T2T1 1-576)
chain: MPALSTGSGSDTGLYELLAALPAQLQPHVDSQEDLTFLWDMFGEKSLHSLVKIHEKLHYYEKQSPVPILHGAAALADDLAEELQNKPLNSEIRELLKLLSKPNVKALLSVHDTVAQKNYDPVLPPMPEDIDDEEDSVKIIRLVKNREPLGATIKKDEQTGAIIVARIMRGGAADRSGLIHVGDELREVNGIPVEDKRPEEIIQILAQSQGAITFKIIPGSKEETPSKEGKMFIKALFDYNPNEDKAIPCKEAGLSFKKGDILQIMSQDDATWWQAKHEADANPRAGLIPSKHFQERRLALRRPEILVQPLKVSNRKSSGFRKSFRLSRKDKKTNKSMYECKKSDQYDTADVPTYEEVTPYRRQTNEKYRLVVLVGPVGVGLNELKRKLLISDTQHYGVTVPHTTRARRSQESDGVEYIFISKHLFETDVQNNKFIEYGEYKNNYYGTSIDSVRSVLAKNKVCLLDVQPHTVKHLRTLEFKPYVIFIKPPSIERLRETRKNAKIISSRDDQGAAKPFTEEDFQEMIKSAQIMESQYGHLFDKIIINDDLTVAFNELKTTFDKLETETHWVPVSWLHS
binding [8]: no binding

B3: LIN7C, endogenous (protein, UniProt Q9NUP9 1-197)
chain: MAALGEPVRLERDICRAIELLEKLQRSGEVPPQKLQALQRVLQSEFCNAVREVYEHVYETVDISSSPEVRANATAKATVAAFAASEGHSHPRVVELPKTEEGLGFNIMGGKEQNSPIYISRIIPGGIADRHGGLKRGDQLLSVNGVSVEGEHHEKAVELLKAAQGKVKLVVRYTPKVLEEMESRFEKMRSAKRRQQT
binding [8]: no binding
